Counter-ions that a name gives are not always drawn. Some of the results follow. The calls rarely recur for the same compound in another form.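 Kinases were expressed as nanoluciferase fusions in K562 cells and luminescence was read every 4 h between 2 and 18 h as percent of control, DMSO set to 100% and a positive control to 0%. A time point counts as decreased when the signal drops significantly (2 sigma). The hit call is the authors' own, does not follow from the count of time points alone, and its rule is not shown.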
Columns and labels:
Assay in all cases: kinase-Nluc reporter destabilization hit call (1 = scored as downregulated) (binary); higher = compound decreases kinase abundance
Details in all cases: K562, 2-18 h
PDPK1 = PDPK1 (UniProt O15530)
PIK4CA = PIK4CA (UniProt P42356)
PIK4CB = PIK4CB (UniProt Q9UBF8)
PLK1 = PLK1 (UniProt P53350)
PRKAA1 = PRKAA1 (UniProt Q13131)
PRKCA = PRKCA (UniProt P17252)
PTK2 = PTK2 (UniProt Q05397)
PTK2B = PTK2B (UniProt Q14289)
RAF1 = RAF1 (UniProt P04049)
[1] = target: RAF1_S257L (clone: RAF1_mut) (UniProt P04049)
RET = RET (UniProt P07949)
[2] = target: RET_M918T (clone: RET_mut) (UniProt P07949)
RIOK1 = RIOK1 (UniProt Q9BRS2)
RIPK1 = RIPK1 (UniProt Q13546)
RIPK2 = RIPK2 (UniProt O43353)
ROR2 = ROR2 (UniProt Q01974)
RPS6KA1 = RPS6KA1 (UniProt Q15418)
SPHK1 = SPHK1 (UniProt Q9NYA1)
SRC = SRC (UniProt P12931)
STK24 = STK24 (UniProt Q9Y6E0)

By UniProt entry, the sequences of proteins in these tests, tags left out. Where a name states a change or a piece, a line headed by the entry shows the natural chain unless it says otherwise.
UniProt P53350, whole entry: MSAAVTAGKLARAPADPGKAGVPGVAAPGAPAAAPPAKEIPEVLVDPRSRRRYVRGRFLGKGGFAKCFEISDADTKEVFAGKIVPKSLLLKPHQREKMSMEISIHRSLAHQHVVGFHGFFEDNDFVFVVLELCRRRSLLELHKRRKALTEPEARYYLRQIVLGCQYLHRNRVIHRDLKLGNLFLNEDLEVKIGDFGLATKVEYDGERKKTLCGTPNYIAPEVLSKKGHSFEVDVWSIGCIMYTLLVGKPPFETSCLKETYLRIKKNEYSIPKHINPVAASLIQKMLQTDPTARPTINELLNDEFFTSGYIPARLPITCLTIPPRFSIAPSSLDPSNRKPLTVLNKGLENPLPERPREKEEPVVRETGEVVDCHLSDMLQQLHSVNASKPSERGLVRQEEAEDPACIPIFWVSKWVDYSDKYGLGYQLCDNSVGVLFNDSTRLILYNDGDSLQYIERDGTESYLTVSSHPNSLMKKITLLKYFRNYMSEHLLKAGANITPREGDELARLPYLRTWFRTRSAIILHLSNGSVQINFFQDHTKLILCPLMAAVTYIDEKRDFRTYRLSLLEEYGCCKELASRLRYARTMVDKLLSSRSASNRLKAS
UniProt Q13131: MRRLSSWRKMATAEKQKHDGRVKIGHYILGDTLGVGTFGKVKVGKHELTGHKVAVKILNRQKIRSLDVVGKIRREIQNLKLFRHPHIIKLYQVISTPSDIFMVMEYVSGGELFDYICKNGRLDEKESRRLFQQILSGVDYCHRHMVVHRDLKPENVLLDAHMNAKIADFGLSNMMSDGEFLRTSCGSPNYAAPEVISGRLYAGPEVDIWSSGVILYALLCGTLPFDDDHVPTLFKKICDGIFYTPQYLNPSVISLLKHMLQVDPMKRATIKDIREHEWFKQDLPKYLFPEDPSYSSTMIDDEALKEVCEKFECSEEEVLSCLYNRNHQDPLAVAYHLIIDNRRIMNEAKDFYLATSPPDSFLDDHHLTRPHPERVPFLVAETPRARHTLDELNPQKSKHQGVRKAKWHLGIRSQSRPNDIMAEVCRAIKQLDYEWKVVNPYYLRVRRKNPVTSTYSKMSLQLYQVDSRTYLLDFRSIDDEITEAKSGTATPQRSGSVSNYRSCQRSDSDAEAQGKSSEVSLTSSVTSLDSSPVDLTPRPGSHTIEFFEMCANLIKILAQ
UniProt Q05397, whole entry, looked up: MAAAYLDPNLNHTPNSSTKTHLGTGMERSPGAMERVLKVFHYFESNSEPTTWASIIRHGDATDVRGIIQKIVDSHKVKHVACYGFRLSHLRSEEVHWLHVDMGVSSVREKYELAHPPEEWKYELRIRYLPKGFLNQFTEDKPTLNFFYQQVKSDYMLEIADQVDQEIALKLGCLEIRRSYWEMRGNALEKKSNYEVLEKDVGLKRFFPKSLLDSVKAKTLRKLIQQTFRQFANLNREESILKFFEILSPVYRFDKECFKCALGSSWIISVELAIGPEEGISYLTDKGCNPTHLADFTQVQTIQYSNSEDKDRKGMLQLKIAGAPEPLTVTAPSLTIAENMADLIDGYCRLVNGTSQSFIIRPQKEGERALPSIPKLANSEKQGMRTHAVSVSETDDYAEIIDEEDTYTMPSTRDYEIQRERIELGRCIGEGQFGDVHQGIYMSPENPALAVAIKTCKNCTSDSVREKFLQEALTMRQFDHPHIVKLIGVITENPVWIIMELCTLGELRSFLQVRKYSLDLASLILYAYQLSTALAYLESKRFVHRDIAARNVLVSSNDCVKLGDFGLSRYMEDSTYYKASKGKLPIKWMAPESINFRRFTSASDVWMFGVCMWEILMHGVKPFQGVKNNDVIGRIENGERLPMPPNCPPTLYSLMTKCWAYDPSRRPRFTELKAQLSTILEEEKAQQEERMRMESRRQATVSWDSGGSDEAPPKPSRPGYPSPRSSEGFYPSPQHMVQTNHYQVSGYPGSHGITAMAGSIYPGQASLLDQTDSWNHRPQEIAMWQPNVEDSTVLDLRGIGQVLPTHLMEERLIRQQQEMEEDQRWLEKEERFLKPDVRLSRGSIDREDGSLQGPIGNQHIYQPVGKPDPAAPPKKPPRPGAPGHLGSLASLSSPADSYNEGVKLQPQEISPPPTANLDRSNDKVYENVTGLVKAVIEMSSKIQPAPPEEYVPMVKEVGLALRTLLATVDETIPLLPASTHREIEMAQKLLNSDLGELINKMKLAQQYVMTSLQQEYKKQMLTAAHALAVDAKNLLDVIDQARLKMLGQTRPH
UniProt P07949, whole entry, looked up: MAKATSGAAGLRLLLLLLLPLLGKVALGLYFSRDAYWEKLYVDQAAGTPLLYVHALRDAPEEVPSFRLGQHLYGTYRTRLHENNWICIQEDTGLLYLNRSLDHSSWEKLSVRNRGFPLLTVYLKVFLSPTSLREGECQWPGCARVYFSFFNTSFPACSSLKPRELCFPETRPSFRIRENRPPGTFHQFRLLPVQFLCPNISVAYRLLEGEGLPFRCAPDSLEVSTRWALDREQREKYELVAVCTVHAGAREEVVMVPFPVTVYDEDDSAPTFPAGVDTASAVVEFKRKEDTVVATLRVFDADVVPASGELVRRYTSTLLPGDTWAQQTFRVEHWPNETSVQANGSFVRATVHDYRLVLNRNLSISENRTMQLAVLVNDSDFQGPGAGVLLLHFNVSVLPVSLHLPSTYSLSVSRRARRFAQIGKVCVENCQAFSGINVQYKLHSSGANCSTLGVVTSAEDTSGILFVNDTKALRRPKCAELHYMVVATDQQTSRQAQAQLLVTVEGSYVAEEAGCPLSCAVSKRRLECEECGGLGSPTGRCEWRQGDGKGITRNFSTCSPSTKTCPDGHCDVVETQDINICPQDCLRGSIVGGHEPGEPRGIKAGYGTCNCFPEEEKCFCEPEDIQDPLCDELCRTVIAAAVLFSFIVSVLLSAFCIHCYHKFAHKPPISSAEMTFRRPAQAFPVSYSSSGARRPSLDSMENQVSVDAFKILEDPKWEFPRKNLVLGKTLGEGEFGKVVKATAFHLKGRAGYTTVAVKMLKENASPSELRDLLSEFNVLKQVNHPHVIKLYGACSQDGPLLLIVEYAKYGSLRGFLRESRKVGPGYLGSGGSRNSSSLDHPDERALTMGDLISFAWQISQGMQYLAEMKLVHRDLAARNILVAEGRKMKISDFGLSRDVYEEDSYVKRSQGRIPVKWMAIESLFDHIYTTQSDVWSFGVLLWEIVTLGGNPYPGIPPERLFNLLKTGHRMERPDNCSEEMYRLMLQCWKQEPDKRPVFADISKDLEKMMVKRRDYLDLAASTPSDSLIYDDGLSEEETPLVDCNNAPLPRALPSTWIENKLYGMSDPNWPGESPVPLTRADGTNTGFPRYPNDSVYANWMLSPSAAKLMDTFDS
UniProt P07949, whole entry M918T, looked up: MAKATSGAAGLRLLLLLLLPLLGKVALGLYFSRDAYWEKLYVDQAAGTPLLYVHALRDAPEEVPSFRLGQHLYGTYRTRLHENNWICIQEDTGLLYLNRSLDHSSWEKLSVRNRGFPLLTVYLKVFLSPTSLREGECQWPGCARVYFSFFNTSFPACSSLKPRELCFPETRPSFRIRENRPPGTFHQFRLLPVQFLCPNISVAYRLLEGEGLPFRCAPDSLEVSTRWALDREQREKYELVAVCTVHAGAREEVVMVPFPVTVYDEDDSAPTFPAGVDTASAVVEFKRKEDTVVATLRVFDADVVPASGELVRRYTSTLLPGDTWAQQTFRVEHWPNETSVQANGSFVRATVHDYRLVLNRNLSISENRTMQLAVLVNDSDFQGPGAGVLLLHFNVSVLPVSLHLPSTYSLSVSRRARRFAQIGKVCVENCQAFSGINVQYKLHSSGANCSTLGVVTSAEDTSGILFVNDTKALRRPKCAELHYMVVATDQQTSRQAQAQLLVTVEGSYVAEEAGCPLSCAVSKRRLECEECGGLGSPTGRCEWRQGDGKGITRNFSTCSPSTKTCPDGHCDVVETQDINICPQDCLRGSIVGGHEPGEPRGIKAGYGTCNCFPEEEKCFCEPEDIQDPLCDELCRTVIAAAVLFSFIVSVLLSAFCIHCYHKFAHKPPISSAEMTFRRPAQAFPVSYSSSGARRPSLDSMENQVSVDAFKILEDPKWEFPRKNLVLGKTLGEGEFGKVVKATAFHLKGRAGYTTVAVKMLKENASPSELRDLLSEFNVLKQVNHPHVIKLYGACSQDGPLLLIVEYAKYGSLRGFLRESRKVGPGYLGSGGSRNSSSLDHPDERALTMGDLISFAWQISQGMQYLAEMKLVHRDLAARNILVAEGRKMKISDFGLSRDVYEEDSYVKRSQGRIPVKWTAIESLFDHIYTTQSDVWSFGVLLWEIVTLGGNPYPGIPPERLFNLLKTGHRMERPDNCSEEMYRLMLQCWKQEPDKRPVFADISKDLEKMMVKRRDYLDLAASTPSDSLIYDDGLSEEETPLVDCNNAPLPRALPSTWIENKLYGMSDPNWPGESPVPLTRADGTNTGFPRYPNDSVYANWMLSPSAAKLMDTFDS
UniProt Q01974, whole entry: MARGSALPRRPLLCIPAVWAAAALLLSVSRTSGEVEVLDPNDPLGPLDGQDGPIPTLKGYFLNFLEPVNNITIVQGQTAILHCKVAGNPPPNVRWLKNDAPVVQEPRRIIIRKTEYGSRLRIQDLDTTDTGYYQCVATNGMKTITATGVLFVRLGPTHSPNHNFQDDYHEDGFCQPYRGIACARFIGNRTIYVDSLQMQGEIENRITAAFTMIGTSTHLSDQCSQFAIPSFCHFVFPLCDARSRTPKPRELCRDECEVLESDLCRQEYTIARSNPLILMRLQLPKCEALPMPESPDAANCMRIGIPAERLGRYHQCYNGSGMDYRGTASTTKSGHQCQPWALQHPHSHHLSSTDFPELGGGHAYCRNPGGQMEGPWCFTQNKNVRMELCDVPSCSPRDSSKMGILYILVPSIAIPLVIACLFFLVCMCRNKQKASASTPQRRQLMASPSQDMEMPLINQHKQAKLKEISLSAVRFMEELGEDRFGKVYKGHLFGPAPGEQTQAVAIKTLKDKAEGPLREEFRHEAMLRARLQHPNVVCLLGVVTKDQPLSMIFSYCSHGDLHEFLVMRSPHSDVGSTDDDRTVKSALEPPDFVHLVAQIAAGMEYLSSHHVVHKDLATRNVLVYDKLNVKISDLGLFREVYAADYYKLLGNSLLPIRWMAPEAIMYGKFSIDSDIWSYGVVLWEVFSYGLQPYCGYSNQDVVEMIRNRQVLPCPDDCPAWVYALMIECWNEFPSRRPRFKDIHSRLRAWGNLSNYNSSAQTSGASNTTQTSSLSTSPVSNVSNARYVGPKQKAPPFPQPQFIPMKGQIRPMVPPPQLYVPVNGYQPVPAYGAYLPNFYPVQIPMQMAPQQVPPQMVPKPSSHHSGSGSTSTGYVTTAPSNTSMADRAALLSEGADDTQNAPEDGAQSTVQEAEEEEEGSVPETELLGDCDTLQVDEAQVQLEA
UniProt Q9NYA1, whole entry: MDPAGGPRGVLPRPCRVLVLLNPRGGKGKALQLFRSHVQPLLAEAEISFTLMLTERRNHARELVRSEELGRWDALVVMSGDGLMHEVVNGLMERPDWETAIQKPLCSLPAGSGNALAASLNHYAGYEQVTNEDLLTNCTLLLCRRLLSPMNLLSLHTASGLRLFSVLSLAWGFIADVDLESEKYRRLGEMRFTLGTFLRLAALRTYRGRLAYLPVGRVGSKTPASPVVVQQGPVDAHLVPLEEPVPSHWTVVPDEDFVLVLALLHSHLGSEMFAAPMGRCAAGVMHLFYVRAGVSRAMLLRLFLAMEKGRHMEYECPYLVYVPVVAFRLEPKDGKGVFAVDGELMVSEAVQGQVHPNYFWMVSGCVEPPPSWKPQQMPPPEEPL
UniProt Q9Y6E0: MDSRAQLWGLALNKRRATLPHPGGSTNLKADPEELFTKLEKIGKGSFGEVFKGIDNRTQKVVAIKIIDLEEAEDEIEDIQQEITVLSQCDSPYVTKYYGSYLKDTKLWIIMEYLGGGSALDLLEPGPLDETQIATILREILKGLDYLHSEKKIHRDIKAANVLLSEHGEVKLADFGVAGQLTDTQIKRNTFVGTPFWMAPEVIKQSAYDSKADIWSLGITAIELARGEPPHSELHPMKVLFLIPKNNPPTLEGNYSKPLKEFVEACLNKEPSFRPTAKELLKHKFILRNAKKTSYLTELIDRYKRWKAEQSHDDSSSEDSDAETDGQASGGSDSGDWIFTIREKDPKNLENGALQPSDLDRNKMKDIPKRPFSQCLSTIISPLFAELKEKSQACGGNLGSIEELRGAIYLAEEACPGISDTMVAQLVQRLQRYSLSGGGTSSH

Row | SMILES | kinase-Nluc reporter destabilization hit call (PDPK1; 2.5 µM) | kinase-Nluc reporter destabilization hit call (PIK4CA; 2.5 µM) | kinase-Nluc reporter destabilization hit call (PIK4CB; 2.5 µM) | kinase-Nluc reporter destabilization hit call (PLK1; 2.5 µM) | kinase-Nluc reporter destabilization hit call (PRKAA1; 2.5 µM) | kinase-Nluc reporter destabilization hit call (PRKCA; 2.5 µM) | kinase-Nluc reporter destabilization hit call (PTK2; 2.5 µM) | kinase-Nluc reporter destabilization hit call (PTK2B; 2.5 µM) | kinase-Nluc reporter destabilization hit call (RAF1; 2.5 µM) | kinase-Nluc reporter destabilization hit call ([1]; 2.5 µM) | kinase-Nluc reporter destabilization hit call (RET; 2.5 µM) | kinase-Nluc reporter destabilization hit call ([2]; 2.5 µM) | kinase-Nluc reporter destabilization hit call (RIOK1; 2.5 µM) | kinase-Nluc reporter destabilization hit call (RIPK1; 2.5 µM) | kinase-Nluc reporter destabilization hit call (RIPK2; 2.5 µM) | kinase-Nluc reporter destabilization hit call (ROR2; 2.5 µM) | kinase-Nluc reporter destabilization hit call (RPS6KA1; 2.5 µM) | kinase-Nluc reporter destabilization hit call (SPHK1; 2.5 µM) | kinase-Nluc reporter destabilization hit call (SRC; 2.5 µM) | kinase-Nluc reporter destabilization hit call (STK24; 2.5 µM) | kinase-Nluc reporter destabilization hit call (PDPK1; 10 µM) | kinase-Nluc reporter destabilization hit call (PIK4CA; 10 µM) | kinase-Nluc reporter destabilization hit call (PIK4CB; 10 µM) | kinase-Nluc reporter destabilization hit call (PLK1; 10 µM) | kinase-Nluc reporter destabilization hit call (PRKAA1; 10 µM) | kinase-Nluc reporter destabilization hit call (PRKCA; 10 µM) | kinase-Nluc reporter destabilization hit call (PTK2; 10 µM) | kinase-Nluc reporter destabilization hit call (PTK2B; 10 µM) | kinase-Nluc reporter destabilization hit call (RAF1; 10 µM) | kinase-Nluc reporter destabilization hit call ([1]; 10 µM) | kinase-Nluc reporter destabilization hit call (RET; 10 µM) | kinase-Nluc reporter destabilization hit call ([2]; 10 µM) | kinase-Nluc reporter destabilization hit call (RIOK1; 10 µM) | kinase-Nluc reporter destabilization hit call (RIPK1; 10 µM) | kinase-Nluc reporter destabilization hit call (RIPK2; 10 µM) | kinase-Nluc reporter destabilization hit call (ROR2; 10 µM) | kinase-Nluc reporter destabilization hit call (RPS6KA1; 10 µM) | kinase-Nluc reporter destabilization hit call (SPHK1; 10 µM) | kinase-Nluc reporter destabilization hit call (SRC; 10 µM) | kinase-Nluc reporter destabilization hit call (STK24; 10 µM)
1 | C=CC(=O)Nc1cc2c(Nc3ccc(F)c(Cl)c3)ncnc2cc1OCCCN1CCOCC1 [Canertinib (dihydrochloride)] | inactive: 0 | inactive: 0 | inactive: 0 | inactive: 0 | inactive: 0 | inactive: 0 | inactive: 0 | inactive: 0 | inactive: 0 | inactive: 0 | inactive: 0 | inactive: 0 | inactive: 0 | inactive: 0 | inactive: 0 | inactive: 0 | inactive: 0 | inactive: 0 | inactive: 0 | inactive: 0 | – | – | – | – | – | – | – | – | – | – | – | – | – | – | – | – | – | – | – | –
2 | O=C1Cc2c([nH]c3ccc(Br)cc23)-c2ccccc2N1 [Kenpaullone] | – | – | – | – | – | – | – | – | – | – | – | – | – | – | – | – | – | – | – | – | inactive: 0 | inactive: 0 | inactive: 0 | inactive: 0 | inactive: 0 | inactive: 0 | inactive: 0 | inactive: 0 | inactive: 0 | inactive: 0 | inactive: 0 | inactive: 0 | inactive: 0 | inactive: 0 | inactive: 0 | inactive: 0 | inactive: 0 | active: 1 | inactive: 0 | inactive: 0
3 | C[C@H]1CN(C2COC2)CCN1c1ccc(Nc2cc(-c3ccnc(N4CCn5c(cc6c5CC(C)(C)C6)C4=O)c3CO)cn(C)c2=O)nc1 [Fenebrutinib] | – | – | – | – | – | – | – | – | – | – | – | – | – | – | – | – | – | – | – | – | inactive: 0 | inactive: 0 | inactive: 0 | inactive: 0 | inactive: 0 | inactive: 0 | inactive: 0 | inactive: 0 | inactive: 0 | inactive: 0 | inactive: 0 | inactive: 0 | inactive: 0 | inactive: 0 | inactive: 0 | inactive: 0 | inactive: 0 | inactive: 0 | inactive: 0 | inactive: 0
4 | COc1cc2ncnc(Nc3cccc(Br)c3)c2cc1OC | – | – | – | – | – | – | – | – | – | – | – | – | – | – | – | – | – | – | – | – | inactive: 0 | inactive: 0 | inactive: 0 | inactive: 0 | inactive: 0 | inactive: 0 | inactive: 0 | inactive: 0 | inactive: 0 | inactive: 0 | inactive: 0 | inactive: 0 | inactive: 0 | inactive: 0 | inactive: 0 | inactive: 0 | inactive: 0 | inactive: 0 | inactive: 0 | inactive: 0
5 | C=CC(=O)N1C[C@@H](Nc2ncnc3[nH]ccc23)CC[C@H]1C [(2R,5S)-Ritlecitinib] | – | – | – | – | – | – | – | – | – | – | – | – | – | – | – | – | – | – | – | – | inactive: 0 | inactive: 0 | inactive: 0 | inactive: 0 | inactive: 0 | inactive: 0 | inactive: 0 | inactive: 0 | inactive: 0 | inactive: 0 | inactive: 0 | inactive: 0 | inactive: 0 | inactive: 0 | inactive: 0 | inactive: 0 | inactive: 0 | inactive: 0 | inactive: 0 | inactive: 0

Source: the supplement of paper PMC12823440, “Inhibitors supercharge kinase turnover through native proteolytic circuits” (Nature, 2025)
